## Primary screen of a compound library

Measurements from “University of Dundee, Small-Polar-MMV Screening Library” (2021), ChEMBL document CHEMBL3988442.

Mtb growth Cornell: 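Whole-cell assay for inhibitors of Mycobacterium tuberculosis growth, labelled Cornell in the record; the read-out is not stated. The concentration is filed as 10 mM, unlikely as a test dose, so the dose is not known. Higher means stronger inhibition (inferred from two other growth screens of the library). Size under these conditions: about 53,000 compounds, about 900 of them at 50% or above in at least one test.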
Mtb heat-shock: 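Assay on Mycobacterium tuberculosis, filed only as a heat shock assay from Cornell; the read-out is not stated. The concentration is filed as 10 mM, unlikely as a test dose, so the dose is not known. Direction is inferred from retests: higher values go with stronger inhibition. Size under these conditions: about 69,000 compounds, about 930 of them at 50% or above in at least one test.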

Results are given as percent effect. The controls that fix the scale are not given in the record; negative values are as filed. This is an unselected part of the compounds tested.

For Cn1ccnc1-c1noc(NCc2ccc3c(c2)OCCO3)n1 the result was Mtb growth Cornell: 16.04%; Mtb heat-shock: -21.57%. Cc1ccc(C(C)NC(=O)N2CCCN(CC(F)F)CC2)s1 (stereo not given) read Mtb growth Cornell: -6.463%; Mtb heat-shock: 2.193%. Result for Cc1ccc(NC(=O)CS(=O)(=O)NC2CCC(C)CC2)nc1 (stereo not given) was Mtb growth Cornell: 59.09%; Mtb heat-shock: -6.32%. Result for COCCCC1(CO)CCCN(C(=O)c2cnc(C3CC3)nc2)C1 (stereo not given) was Mtb heat-shock: 7.077%. CC(=O)N1CCC1c1cc(N2CCSCC2)nc(C)n1 (stereo not given) gave Mtb growth Cornell: 20.37%; Mtb heat-shock: 0.3082%. With Cc1noc(CNc2ccc(C(=O)N3CCCC(C)C3)cc2C)n1 (stereo not given) the screen gave Mtb growth Cornell: -10.19%; Mtb heat-shock: 0.7556%. N#CCc1ccc(OCC(=O)NS(=O)(=O)c2ccc(Br)s2)cc1 read Mtb growth Cornell: -27.97%; Mtb heat-shock: -31.02%. Result for N#Cc1cnc2ccccc2c1N1CCNCC1 was Mtb growth Cornell: -20.84%; Mtb heat-shock: 5.364%.

CN(CCCc1n[nH]c(N)c1C#N)C(=O)NC1CC1 gave Mtb growth Cornell: -13.1%; Mtb heat-shock: -4.191%. For Cc1nc(Nc2cnccn2)cc(C2CCCN(C(C)C)C2)n1 (stereo not given) the result was Mtb growth Cornell: -5.253%; Mtb heat-shock: -6.656%. For CC(C)Oc1cccc(C(=O)C2CCCN(C(=O)c3cncs3)C2)c1 (stereo not given) the result was Mtb growth Cornell: 33.49%; Mtb heat-shock: 3.252%. Result for Cc1cc(CCC2CN(Cc3ccccc3C(=O)O)CCO2)ncn1 (stereo not given) was Mtb growth Cornell: -50.51%; Mtb heat-shock: -9.529%. For Cn1cc(NC(=O)Cn2c(CS(C)(=O)=O)nc3ccccc32)cn1 the result was Mtb growth Cornell: -19.06%; Mtb heat-shock: 12.76%. Result for COCC1CN(Cc2cc(C)on2)Cc2cn(C)nc21 (stereo not given) was Mtb growth Cornell: 32.58%; Mtb heat-shock: 1.385%. With [H][C@]12CC[C@]([H])(CN(C(=O)c3ccncc3)C1)N(C(=O)c1csc(C)c1)C2 the screen gave Mtb growth Cornell: -18.15%; Mtb heat-shock: 7.186%. With O=C(CCCc1ccc(Cl)cc1)N1CCC(c2nnc[nH]2)CC1 the screen gave Mtb growth Cornell: 7.819%; Mtb heat-shock: 3.453%.

CC(C)(C)NC(=O)c1ccccc1NC(=O)c1ccncc1 read Mtb heat-shock: -1.061%. COc1cccc(C(O)Cn2ncc3ncccc3c2=O)c1 (stereo not given) gave Mtb heat-shock: -5.722%. Result for O=C(NCCc1nc(-c2ccccn2)no1)c1ccc(C2CCCO2)s1 (stereo not given) was Mtb heat-shock: -11.21%. With Cc1cc(C)nc(NCCC(=O)Nc2ccc(Cn3cncn3)cc2)n1 the screen gave Mtb growth Cornell: -5.088%; Mtb heat-shock: -3.745%. CC1CCN(C(=O)NCCc2cc(F)ccc2F)C1 (stereo not given) gave Mtb growth Cornell: 29.01%; Mtb heat-shock: 31.5%. [H][C@]12CCC[C@@]1(COCc1csc(C)n1)CN(Cc1cnn(C)c1)C2 gave Mtb growth Cornell: -3.456%; Mtb heat-shock: 0.2514%. Result for O=C(c1cncc(N2CCC3(CC2)NCCNC3=O)n1)N1CCCCC1 was Mtb growth Cornell: -45.3%; Mtb heat-shock: 2.55%. Result for CC(C)N1CCCn2nc(C(=O)NCc3ccccc3F)cc2C1 was Mtb growth Cornell: 12.02%; Mtb heat-shock: -21.96%.

COc1ccc(S(=O)(=O)N2CCn3nc(C)nc3C2)cc1C read Mtb growth Cornell: 14.37%; Mtb heat-shock: -22.59%. CS(=O)(=O)CC1(CNc2cc(C#N)c3cc(Cl)ccc3n2)CC1 read Mtb growth Cornell: 18.08%; Mtb heat-shock: -10.39%. For CCCC(=O)N1CCCC(c2cc3cccnc3c(O)n2)C1 (stereo not given) the result was Mtb growth Cornell: -20.12%; Mtb heat-shock: -27.54%. Result for Cc1ccc2c(c1)SCC(=O)N2CC(=O)N1CCCC1c1cc(C)no1 (stereo not given) was Mtb growth Cornell: -17.28%; Mtb heat-shock: 7.036%. For Cc1csc(N2CCCN(C(=O)C3(C#N)CCCC3)CC2)n1 the result was Mtb heat-shock: -16.88%. COCC(=O)NC(CC(C)C)c1nc2cccnc2n1C (stereo not given) gave Mtb growth Cornell: -28.14%; Mtb heat-shock: -16.15%. For CS(=O)(=O)N1CCC(N2CCCC2c2ccccn2)CC1 (stereo not given) the result was Mtb growth Cornell: 17.2%; Mtb heat-shock: -15.48%. Result for O=C(O)C(F)(F)F.[H][C@@]12CN(C)CCO[C@]1([H])CN(S(=O)(=O)c1ccccc1)C2 was Mtb growth Cornell: -21.15%; Mtb heat-shock: -30%.

CCS(=O)(=O)N(C)C1CCN(c2cccc(F)c2C(C)=O)CC1 read Mtb growth Cornell: 3.286%; Mtb heat-shock: 11.23%. With N#CCCN(CC1CCCO1)C(=O)c1ccc(C#N)cc1 (stereo not given) the screen gave Mtb growth Cornell: -1.289%; Mtb heat-shock: -0.8422%. For CC(C)C(=O)NCc1cc(Br)ccc1F the result was Mtb heat-shock: 12.8%.

For reference, 4 entries once more:

Result for Cc1ccc2c(c1)SCC(=O)N2CC(=O)N1CCCC1c1cc(C)no1 (stereo not given) was Mtb growth Cornell: -17.28%; Mtb heat-shock: 7.036%.
Result for [H][C@]12CCC[C@@]1(COCc1csc(C)n1)CN(Cc1cnn(C)c1)C2 was Mtb growth Cornell: -3.456%; Mtb heat-shock: 0.2514%.
Result for COCC1CN(Cc2cc(C)on2)Cc2cn(C)nc21 (stereo not given) was Mtb growth Cornell: 32.58%; Mtb heat-shock: 1.385%.
Result for O=C(CCCc1ccc(Cl)cc1)N1CCC(c2nnc[nH]2)CC1 was Mtb growth Cornell: 7.819%; Mtb heat-shock: 3.453%.